Results reported in article doi:10.1101/2023.12.08.570772.
No constants are given. Whether binding was seen depends on the method and setting. In cells and extracts the contact can be indirect. These calls come from enrichment with a bait or labelling near it, and not all partners need be listed. For some assays here: No binding means not detected with the bait. Sequences can lack the tags named with a protein.

Legend:
[1] = target: T1, GFP-tagged MAGEC2 WT (human) (UniProt Q9UBF1); experiment: affinity purification with mass spectrometry
T1 sequence: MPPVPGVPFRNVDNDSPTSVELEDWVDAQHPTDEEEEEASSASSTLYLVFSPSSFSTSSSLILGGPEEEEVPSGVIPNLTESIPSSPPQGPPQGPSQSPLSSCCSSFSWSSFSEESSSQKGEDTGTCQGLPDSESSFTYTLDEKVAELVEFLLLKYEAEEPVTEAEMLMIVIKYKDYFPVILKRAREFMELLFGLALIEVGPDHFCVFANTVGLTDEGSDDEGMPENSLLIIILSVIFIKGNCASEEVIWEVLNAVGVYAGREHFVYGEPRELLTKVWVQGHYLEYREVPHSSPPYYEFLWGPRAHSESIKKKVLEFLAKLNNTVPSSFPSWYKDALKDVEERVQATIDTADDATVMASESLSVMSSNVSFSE

[2] = target: T2, GFP-tagged MAGEC2 L318D (human) (UniProt Q9UBF1); experiment: affinity purification with mass spectrometry
T2 sequence: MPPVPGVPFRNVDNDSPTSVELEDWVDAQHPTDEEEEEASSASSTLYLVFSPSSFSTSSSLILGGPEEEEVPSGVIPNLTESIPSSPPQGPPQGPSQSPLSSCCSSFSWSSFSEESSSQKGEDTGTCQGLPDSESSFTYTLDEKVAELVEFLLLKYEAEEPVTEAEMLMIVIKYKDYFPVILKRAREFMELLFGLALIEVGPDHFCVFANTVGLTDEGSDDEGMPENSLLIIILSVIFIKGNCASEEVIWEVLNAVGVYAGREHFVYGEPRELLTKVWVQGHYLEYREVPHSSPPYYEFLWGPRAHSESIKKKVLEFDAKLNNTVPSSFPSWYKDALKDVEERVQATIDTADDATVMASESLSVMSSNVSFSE

B1: MAGEB2 (protein, UniProt O15479 1-319)
chain: MPRGQKSKLRAREKRRKARDETRGLNVPQVTEAEEEEAPCCSSSVSGGAASSSPAAGIPQEPQRAPTTAAAAAAGVSSTKSKKGAKSHQGEKNASSSQASTSTKSPSEDPLTRKSGSLVQFLLYKYKIKKSVTKGEMLKIVGKRFREHFPEILKKASEGLSVVFGLELNKVNPNGHTYTFIDKVDLTDEESLLSSWDFPRRKLLMPLLGVIFLNGNSATEEEIWEFLNMLGVYDGEEHSVFGEPWKLITKDLVQEKYLEYKQVPSSDPPRFQFLWGPRAYAETSKMKVLEFLAKVNGTTPCAFPTHYEEALKDEEKAGV
**Q.** With B1 as the binder, how does the binding [1] read?
**A.** Its binding is “binds”.

**Q.** And the binding [2]?
**A.** The binding was “no binding”.
